Experimental findings from the supplement of paper PMC9135407 are described below.

Where “and” joins values, the source holds several entries; their conditions need not be identical. Equal entries are not always repeated. ± gives the standard deviation of the averaged measurements. This is one part of the list. Part of the spread comes from offsets between plates or batches.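 Primary human stellate myofibroblasts activated in culture; inactivation shown by regained lipid droplets. Readout: fraction of Hoechst-counted cells exceeding a per-plate Bodipy threshold, duplicate wells, each plate with DMSO negative and nortriptyline positive controls. Hits: control-normalized score beyond the plate's top-tenth-percentile nortriptyline wells, or among its three best wells. Final well concentrations unstated.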

For this assay, the system named is primary human hepatic stellate cells (donor 1). The experiment in a line: percent Bodipy-positive cells; higher = more lipid droplet accumulation. The note with it: 48 h.
The mark [1] stands for this setting: library stock concentration: 1 mM.
[2] abbreviates: library stock concentration: 2 mM.
Where [3] appears, read: library stock concentration: 10 mM.
Setting [4] is: library stock concentration: 3.33 mM.

As for `CCCCCCCCC=CCC=CCC=CCCCC(=O)O` [5(Z),8(Z),11(Z)-Eicosatrienoic Acid], the “percent Bodipy-positive cells” value under setting [1] was 18.9 ± 5.3%.

Turning to `COc1cc2ncnc(Nc3ccc(F)c(Cl)c3)c2cc1NC(=O)C=CCN1CCCCC1`, the “percent Bodipy-positive cells” value amounted to 72 ± 13% under setting [2] and 99.345 ± 0.036% under setting [3]. Turning to `COc1ccc(-c2nc3cc(C4=NNC(=O)CC4C)ccc3[nH]2)cc1` (stereo not drawn) [Pimobendan], the “percent Bodipy-positive cells” value runs as follows: under setting [4], 10.3 ± 4.2%; under setting [3], 34.3 ± 3.1%.

Regarding `NCC(=O)Nc1ccc(-n2nc(C(F)(F)F)cc2-c2ccc3c(ccc4ccccc43)c2)cc1`, the “percent Bodipy-positive cells” value worked out at 86.4 ± 14% under setting [4] and 50.2 ± 20% under setting [3]. As to `CN1CCC[C@@H]1CCO[C@](C)(c1ccccc1)c1ccc(Cl)cc1.O=C(O)/C=C/C(=O)O` [Clemastine fumarate], the “percent Bodipy-positive cells” value under setting [3] worked out at 70.2 ± 9.5%. On the same count and under the same terms, under `S=C1SCN(Cc2ccccc2)CN1Cc1ccccc1` stands 37.2 ± 1.1%; under `CNCc1ccc(-c2[nH]c3cc(F)cc4c3c2CCNC4=O)cc1.O=P(O)(O)O` [Rucaparib], 99.09 ± 0.39%.

With `CCc1cncnc1N1CCN(Cc2nc3ccc(C(F)(F)F)cc3[nH]2)CC1`, the “percent Bodipy-positive cells” value by setting is: (library stock concentration: 80 uM) 10.8 ± 10%; (library stock concentration: 400 uM) 11.1 ± 8.2%; under setting [2], 6.11 ± 0.2%; under setting [4], 8.01 ± 0.64%; under setting [3], 30% and 23.3%. As to `CCS(=O)(=O)N(C)[C@H]1c2cc(C#N)ccc2OC(C)(C)[C@@H]1O` [(-)-[3R,4S]-Chromanol 293B], under setting [3], the “percent Bodipy-positive cells” value amounted to 4.74 ± 0.67%.

As for `Cc1cc(C2CCCCC2)n(O)c(=O)c1` [Ciclopirox ethanolamine], the “percent Bodipy-positive cells” value came to 52.7 ± 1.4%. In addition, the “percent Bodipy-positive cells” value under setting [4] was determined as 26.1 ± 0.89%. The “percent Bodipy-positive cells” value under setting [3] was 39.7 ± 6.6%. For `Cc1cc(C2CCCCC2)n(O)c(=O)c1` [Ciclopirox olamine], the “percent Bodipy-positive cells” value was 11.3 ± 1.8% (library stock concentration: 7.5 mM) and 30.1 ± 4.1% under setting [3]. Turning to `Cc1cc(C2CCCCC2)n(O)c(=O)c1` [Ciclopirox], the “percent Bodipy-positive cells” value runs as follows: under setting [4], 14.5 ± 3.9%; under setting [3], 31.2 ± 0.41%. Consider `CC1=C(C(=O)OC(C)C)C(c2cccc([N+](=O)[O-])c2)C(C(=O)OC2CN(C(c3ccccc3)c3ccccc3)C2)=C(N)N1` (stereo not drawn) [Azelnidipine], for which the “percent Bodipy-positive cells” value was determined as 3.252 ± 0.022% under setting [4] and 46.3 ± 15% under setting [3]. With `COc1cc(C(=O)NS(=O)(=O)c2ccccc2C)ccc1Cc1cn(C)c2ccc(NC(=O)OC3CCCC3)cc12`, the “percent Bodipy-positive cells” value under setting [3] stood at 5.96 ± 2.3%. As to `COc1cc(C(=O)NS(=O)(=O)c2ccccc2C)ccc1Cc1cn(C)c2ccc(NC(=O)OC3CCCC3)cc12` [Zafirlukast], the “percent Bodipy-positive cells” value was 7.41 ± 1.7% under setting [1], 10.8 ± 3.8% under setting [4], 9.715 ± 0.0042% (library stock concentration: 3.5 mM) and 11.4 ± 5.5% under setting [3]. `CC(C)OC(=O)CCC/C=C\C[C@@H]1[C@@H](/C=C/[C@H](O)C2Cc3ccccc3C2)[C@@H](F)C[C@@H]1O` [AL 8810 isopropyl ester]: the “percent Bodipy-positive cells” value under setting [1] stood at 12.3 ± 0.5%. Turning to `CN[C@H]1CN(c2ccc3c(=O)c(C(=O)O)cn(-c4nccs4)c3n2)C[C@@H]1OC` [Voreloxin (SNS-595)], the “percent Bodipy-positive cells” value runs as follows: under setting [4], 33 ± 1.2%; under setting [3], 72.2 ± 1.5%.
